The target in test [1] is T1, RalGPS2 (Ral GEF with PH domain and SH3-binding motif 2) (human (endogenous in 5637 and HEK293)) (UniProt Q86X27).
T1 sequence: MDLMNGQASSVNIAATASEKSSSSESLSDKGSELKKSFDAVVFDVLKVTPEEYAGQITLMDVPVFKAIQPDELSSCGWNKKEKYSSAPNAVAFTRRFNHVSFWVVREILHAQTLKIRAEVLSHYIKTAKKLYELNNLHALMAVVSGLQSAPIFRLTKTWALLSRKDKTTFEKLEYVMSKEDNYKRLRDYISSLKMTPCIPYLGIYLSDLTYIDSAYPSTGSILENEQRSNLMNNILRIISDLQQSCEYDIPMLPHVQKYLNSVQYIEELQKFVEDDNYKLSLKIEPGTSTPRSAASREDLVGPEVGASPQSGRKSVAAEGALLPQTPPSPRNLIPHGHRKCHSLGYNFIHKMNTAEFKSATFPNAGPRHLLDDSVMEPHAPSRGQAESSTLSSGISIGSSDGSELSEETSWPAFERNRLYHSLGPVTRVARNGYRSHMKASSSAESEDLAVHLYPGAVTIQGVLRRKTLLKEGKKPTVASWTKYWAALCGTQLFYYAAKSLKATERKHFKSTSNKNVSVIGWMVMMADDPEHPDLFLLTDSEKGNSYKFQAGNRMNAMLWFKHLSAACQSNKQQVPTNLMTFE
The test is described as follows: co-IP; 5637 cells, endogenous proteins; serum-starved (0.5% FBS) 18 h, then stimulated with 10% FBS for 15 min (S) or left unstimulated (NS); IP with anti-RalGPS2 antibodies, western blot.

Test [2] has as its target T1, RalGPS2 (Ral GEF with PH domain and SH3-binding motif 2) (human (endogenous in 5637 and HEK293)). The test is described as follows: co-IP; HEK293 cells, endogenous proteins; serum-starved (0.5% FBS) 18 h, then stimulated with 10% FBS for 15 min (S) or left unstimulated (NS); IP with anti-RalGPS2, anti-LST1 or anti-Sec5 antibodies, western blot. For orientation: In western blotting, separated proteins are transferred to a membrane and probed.

These are yes or no findings as the source states them, for the method shown. In cells and extracts the contact can be indirect. Binding calls can cover weak binding; strength is not graded here.

As to “protein kinase B (Akt), total (human (endogenous in 5637 and HEK293))”, the binding result in test [1] and in test [2] was “binds” in each case.
